# Where “and” joins values, the source holds several entries; their conditions need not be identical. Equal entries are not always repeated. The list shows a part of the results. Repeats in this data set agree poorly, so a single value says little.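 HEK293T cells were given each compound shortly before transfection with a reporter in which red mCherry is followed by the SARS-CoV-2 frameshift element and then GFP in the −1 frame, so GFP appears only after frameshifting.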
# Tested on: SARS-CoV-2 -1 PRF reporter mCherry-FSE-GFP(-1)
# Experiment: percent effect, decrease of GFP/mCherry ratio (-1 PRF reporter) relative to controls; higher = stronger frameshift inhibition
# Details: 10 µM; 24 h; HEK293T
row,SMILES,percent effect
1,O=C(O)COC(=O)Cc1ccccc1Nc1c(Cl)cccc1Cl [aceclofenac],2.24% and -1.84%
2,CCCOc1ccc2[nH]c(NC(=O)OC)nc2c1 [oxibendazole],-10% and -7.44%
3,O=P1(N(CCCl)CCCl)NCCCO1 (stereo not given) [cyclophosphamide],0.295% and -6.02%
4,CC(C)NCC(O)c1ccc(O)c(O)c1 (stereo not given) [isoprenaline],-3.51% and -0.417%
5,CN1CCN(CCCN2c3ccccc3Sc3ccc(C(F)(F)F)cc32)CC1 [trifluoperazine],-2.02% and 1.02%

# — the supplement of paper PMC8256030
